Source: PubChem BioAssay AID1224828 (NIAID, 2016)
This is one part, drawn at random, of about 17,000 reagents. In the full data, 762 (4.5%) got an active call. 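Active calls include both raised and lowered p65 entry, mostly lowered; wells with fewer than 50 cells lack a z-score.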 Raw values vary from plate to plate and are shown uncorrected. Unmarked entries are inactive. The numbers tell different reagents against one gene apart. Some reagents were tested in more than one well and are listed for each.

Screen: 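Find genes required for NF-kappaB p65 moving into the nucleus after LPS in mouse macrophages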 (primary screen)
System: mouse RAW264.7 G9 macrophage reporter cells (GFP-p65, Tnf promoter-mCherry)
Reagent: siRNA pool against mouse genes, 100 nM
Duration: 2 days siRNA transfection, then 40 min LPS before fixation
Conditions: LPS (Salmonella minnesota R595) at 10 ng/ml
Measured: 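Imaged p65 nuclear translocation ratio, normalised to the plate median, converted to robust z-scores and averaged across two replicates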
Reading the numbers: p65 translocation robust z-score: higher = more nuclear NF-kappaB p65 after LPS than the plate median; nuclear/cytoplasmic p65 ratio: higher = more nuclear NF-kappaB p65
Active means: 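Active if robust z is above 3.3 (negative regulators) or below -1.56, the Tlr4 control median (positive regulators); activity score 50 or more; control wells not called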
Meaning of the calls: active = hit (p65 shift raised or lowered); inactive = no clear change

The first 2 records as a preview:
Gene | pool no. | p65 translocation robust z-score | nuclear/cytoplasmic p65 ratio, rep 1 | nuclear/cytoplasmic p65 ratio, rep 2 | low cell count flag
Rrp1 (GeneID 18114) | 1 | 1.77 | 1.98 | 1.79 | enough cells to score
Vmn1r226 (GeneID 171225) | 1 | -0.2 | 1.45 | 1.2 | enough cells to score

Main list, repeating the preview:
Gene | pool no. | p65 translocation robust z-score | nuclear/cytoplasmic p65 ratio, rep 1 | nuclear/cytoplasmic p65 ratio, rep 2 | low cell count flag
Rrp1 (GeneID 18114) | 1 | 1.77 | 1.98 | 1.79 | enough cells to score
Vmn1r226 (GeneID 171225) | 1 | -0.2 | 1.45 | 1.2 | enough cells to score
Zscan20 (GeneID 269585) | 1 | 0.24 | 1.49 | 1.24 | enough cells to score
Polr1a (GeneID 20019) | 1 | – | 1.17 | 1.05 | fewer than 50 cells per well; well left out of scoring
Eapp (GeneID 66266) | 1 | 1.43 | 1.59 | 1.59 | enough cells to score
Man2b1 (GeneID 17159) | 1 | -0.38 | 1.23 | 1.3 | enough cells to score
Cpz (GeneID 242939) | 1 | -0.7 | 1.42 | 1.25 | enough cells to score
Gtf2h3 (GeneID 209357) | 1 | 0.82 | 1.57 | 1.78 | enough cells to score
Fgf1 (GeneID 14164) | 1 | 0.82 | 1.6 | 1.42 | enough cells to score
Gm14296 (GeneID 102639598) | 1 | -0.92 | 1.24 | 1.2 | enough cells to score
Gm14296 (GeneID 102639598) | 2 | – | 1.05 | 1.4 | fewer than 50 cells per well; well left out of scoring
Heg1 (GeneID 77446) | 1 | – | 1.28 | 1.25 | fewer than 50 cells per well; well left out of scoring
Heg1 (GeneID 77446) | 2 | – | 1.38 | 1.32 | fewer than 50 cells per well; well left out of scoring
Aacs (GeneID 78894) | 1 | 0.99 | 1.67 | 1.67 | enough cells to score
Dlk2 (GeneID 106565) | 1 | – | 1.05 | 1.36 | fewer than 50 cells per well; well left out of scoring
Slc51b (GeneID 330962) | 1 | -0.27 | 1.37 | 1.21 | enough cells to score
Cntf (GeneID 12803) | 1 | -1.9 (active) | 1.24 | 1.14 | enough cells to score
Fgfr3 (GeneID 14184) | 1 | 2.18 | 2.02 | 1.67 | enough cells to score
Rbmy (GeneID 19657) | 1 | 0.61 | 1.57 | 1.64 | enough cells to score
Or10d3 (GeneID 258327) | 1 | 1.36 | 1.71 | 1.32 | enough cells to score
Cmss1 (GeneID 66497) | 1 | -2.03 (active) | 1.16 | 1.16 | enough cells to score
Gabarap (GeneID 56486) | 1 | -0.62 | 1.35 | 1.29 | enough cells to score
Gpm6a (GeneID 234267) | 1 | 1.01 | 1.75 | 1.73 | enough cells to score
BC006965 (GeneID 217294) | 1 | 1.8 | 1.55 | 2.15 | enough cells to score
Stk26 (GeneID 70415) | 1 | 1.13 | 1.82 | 1.57 | enough cells to score
Stk26 (GeneID 70415) | 1 | 0.79 | 1.54 | 1.57 | enough cells to score
Cetn4 (GeneID 207175) | 1 | 0.13 | 1.72 | 1.69 | enough cells to score
Plppr3 (GeneID 216152) | 1 | 0.33 | 1.66 | 1.67 | enough cells to score
9530009G21Rik (GeneID 320305) | 1 | 1.27 | 1.53 | 1.79 | enough cells to score
Ahsg (GeneID 11625) | 1 | -0.99 | 1.37 | 1.55 | enough cells to score
Myoz1 (GeneID 59011) | 1 | -0.3 | 1.78 | 1.51 | enough cells to score
Catsper1 (GeneID 225865) | 1 | 0.87 | 1.53 | 1.54 | enough cells to score
Cradd (GeneID 12905) | 1 | -0.03 | 1.53 | 1.32 | enough cells to score
Tmem53 (GeneID 68777) | 1 | 0.62 | 1.62 | 1.54 | enough cells to score
Ostc (GeneID 66357) | 1 | – | 1.18 | 1.16 | fewer than 50 cells per well; well left out of scoring
Nae1 (GeneID 234664) | 1 | 0.9 | 1.83 | 1.55 | enough cells to score
Or5al7 (GeneID 258570) | 1 | 1.01 | 1.78 | 1.75 | enough cells to score
Tnfrsf13c (GeneID 72049) | 1 | -1.76 (active) | 1.06 | 1 | enough cells to score
Samd9l (GeneID 209086) | 1 | 0.67 | 1.74 | 1.68 | enough cells to score
Hipk3 (GeneID 15259) | 1 | -0.24 | 1.64 | 1.35 | enough cells to score
Wdr41 (GeneID 218460) | 1 | 0.46 | 1.62 | 1.95 | enough cells to score
Usp16 (GeneID 74112) | 1 | 1.52 | 1.7 | 1.74 | enough cells to score
Ube2q1 (GeneID 70093) | 1 | -0.81 | 1.46 | 1.52 | enough cells to score
Pbp2 (GeneID 76400) | 1 | 1.23 | 1.6 | 1.54 | enough cells to score
Itpa (GeneID 16434) | 1 | -0.29 | 1.43 | 1.35 | enough cells to score
Plcb2 (GeneID 18796) | 1 | 0.9 | 1.61 | 1.54 | enough cells to score
Vmn1r25 (GeneID 113865) | 1 | – | 1.5 | 1.35 | fewer than 50 cells per well; well left out of scoring
Pld4 (GeneID 104759) | 1 | 0.09 | 1.62 | 1.69 | enough cells to score
Thap11 (GeneID 59016) | 1 | – | 1.51 | 1.24 | fewer than 50 cells per well; well left out of scoring
Pold4 (GeneID 69745) | 1 | -1.39 | 1.14 | 1.06 | enough cells to score
Popdc1 (GeneID 23828) | 1 | 0.4 | 1.55 | 1.51 | enough cells to score
Tub (GeneID 22141) | 1 | -0.68 | 1.4 | 1.42 | enough cells to score
Galntl6 (GeneID 270049) | 1 | – | 1.23 | 1.16 | fewer than 50 cells per well; well left out of scoring
Mrpl30 (GeneID 107734) | 1 | -0.37 | 1.9 | 1.39 | enough cells to score
Spink1 (GeneID 20730) | 1 | -0.69 | 1.42 | 1.49 | enough cells to score
Klk10 (GeneID 69540) | 1 | 1.27 | 1.52 | 1.46 | enough cells to score
Pcdh20 (GeneID 219257) | 1 | 0.15 | 1.4 | 1.31 | enough cells to score
Bcl2a1c (GeneID 12046) | 1 | – | 1.43 | 1.48 | fewer than 50 cells per well; well left out of scoring
Magea4 (GeneID 17140) | 1 | 1.63 | 2.01 | 1.75 | enough cells to score
